Values quoted from earlier work, collected in patent US8119632B2, “Bicyclic amide derivatives for enhancing glutamatergic synaptic responses” (Cortex Pharmaceuticals, Inc., priority 2007, dated 2012).
At least one compound was matched to its structure with a doubt left.

Test system: AMPA receptor
Conditions: works only at high concentrations; cited from earlier work

COc1ccc(C(=O)N2CCCC2=O)cc1 [aniracetam, N-anisoyl-2-pyrrolidinone]
concentration at which the drug works: approx. 1000 μM
